Assay results published in PMC8597243.
Results are given in words; binding and its absence hold for the method and conditions named. Binding seen in cells or lysates may run through a third protein. Some entries that bind do so weakly or less than the wild type. Values belong to the binder of their own block, whether it stands above or below them.

Amino acid sequences for entries named in this document (tags omitted). Residues count along the entry.
UniProt Q96I51, residues 38-464: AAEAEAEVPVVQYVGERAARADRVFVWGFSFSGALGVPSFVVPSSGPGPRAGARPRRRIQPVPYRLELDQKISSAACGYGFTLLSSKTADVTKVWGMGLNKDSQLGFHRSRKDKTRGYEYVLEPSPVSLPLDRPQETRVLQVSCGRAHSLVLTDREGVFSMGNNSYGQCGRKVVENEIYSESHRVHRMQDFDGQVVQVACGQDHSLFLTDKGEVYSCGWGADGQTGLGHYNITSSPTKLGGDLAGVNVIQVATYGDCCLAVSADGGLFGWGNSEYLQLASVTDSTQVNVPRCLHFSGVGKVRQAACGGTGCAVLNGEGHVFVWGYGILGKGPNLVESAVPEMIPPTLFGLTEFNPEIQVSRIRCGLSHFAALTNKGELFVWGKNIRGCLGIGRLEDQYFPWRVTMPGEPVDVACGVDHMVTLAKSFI

Tests used:
[1] = target: endogenous NME1 (human (endogenous in MDA-MB-231T)), P15531; test: co-IP; MDA-MB-231T lysate (TEEN buffer: 50 mM Tris pH 7.4, 0.5% NP40, 150 mM NaCl, 5 mM EDTA), 200 µg input; anti-NME1, anti-NME6 or anti-RCC1L on Dynabeads protein G, overnight at 4 °C; Western blot; settings: remark: other sources report otherwise
[2] = target: RCC1-like G exchanging factor-like protein (RCC1L) (human (endogenous in MDA-MB-231T)) (UniProt Q96I51); test: proximity ligation; in situ PLA (Duolink) on fixed, permeabilized MDA-MB-231T cells (Ctrl) or the clone KI-186-18 stably overexpressing NME6-186-FLAG; confocal microscopy

binding [1]: binds
B1: endogenous NME2, P22392 1-152 (protein)
chain: MANLERTFIAIKPDGVQRGLVGEIIKRFEQKGFRLVAMKFLRASEEHLKQHYIDLKDRPFFPGLVKYMNSGPVVAMVWEGLNVVKTGRVMLGETNPADSKPGTIRGDFCIQVGRNIIHGSDSVKSAEKEISLWFKPEELVDYKSCAHDWVYE

binding [2]: binds
B2: endogenous NME4 (protein, UniProt O00746 29-187)
chain: GSGGPSWTRERTLVAVKPDGVQRRLVGDVIQRFERRGFTLVGMKMLQAPESVLAEHYQDLRRKPFYPALIRYMSSGPVVAMVWEGYNVVRASRAMIGHTDSAEAAPGTIRGDFSVHISRNVIHASDSVEGAQREIQLWFQSSELVSWADGGQHSSIHPA
